Measured values reported in paper doi:10.1101/2024.12.20.629769.
No constants are given. Whether binding was seen depends on the method and setting. For some assays here: Binding seen in cells or lysates may run through a third protein. Some binding calls cover weakened binding; strength is not graded here. Sequences can lack the tags named with a protein.

B1: Spn3-GFP (protein, UniProt P48008 1-373)
chain: MRTTKKSSKKGIPLNLMVVGDVGLGRTAFINTLCEKPLIRHNNNFDPAEASSVSPVEIVPYQTDIILEDGTKINLTVLDTPHFGEAIDNENNFDIILQYIESQYDNVLEEESRIKRNARFCDDRVHALIYFISPTGHGLRELDIELMRRLAPRVNIIPAIAKADSLTAQELQTTKEMINADIEYYKIPVYDFPYDIEEDEEAIINLSQQLRATIPFAIVSSDRLIEMNGQTVRGRAYPWGVVEVDNPRHSDFLALRSALFATHIEDLHNITSNQLYETYRTEKLSTSQLLLDSTVGLDGKNLSQHDQVLREDRLRAIELSVQKEIEEKRRQLLAREEALRALEEKLAASTAAMANASVSTLPSSVSSTNHSQS
B2: Spn1-tdTomato (protein, UniProt O36023 1-469)
chain: MASMVLADGMPTVKDDSTRSRGSDVDSFTSTDNVTQINVEAAISENKNEEKPIQDNSEQEFNPHVSIIQRQLNGYVGFASLPNQWHRRCVRQGFNFNVLVLGESGSGKSTLVNTLLNRDVYPPTQKSLTGDFGVNPEPTVMINSSAVEIVENGISLQLNVIDTPGFGDFIDNTDCWQPVLTDIEGRYDQYLELEKHNPRSTIQDPRVHACIFFIQPTGHAISAMELRVMLALHEKVNIIPIIAKADTLTDDELNFTKEMILRDIQYHNIRIFFPPTYETDDPESVAENADIMSRIPFAIIASNTFVVNNEGKRVRGRRYPWGVVEVDNEEHSDFPKLREMLIRTHLEELKEQTNKLYEAYRTERLLSSGISQDHSVFREVNPSAKLEEERALHEEKLMKMEAEMKTIFSQKVQEKEDRLKQSENELRTRHREMKAALEKQKADLIDHKNRLMQAKAAAENEKSKRKFFK
B3: Rga4-GFP (protein, UniProt O74360 1-933)
chain: MNSGTTLHLDRLSLETPSERTCFCIKCWESVPSTSQVWFGGKCWHSDCFKCVNCNKKLDPSSEDFSQDDQKQIFCKLCVDICNGCSTPICEFNAVSNSQANHPCCSNCRAFINSNAFGKFKGQHYCLPCLRKQDEENQKAVMESASGFIPLRNIAQTAENTSLTGQNQGFQNPHFIASDSPSSVLSGRMQNTSSPTNSLRPQLKVQTNGYETPGDINSAKSYKDIQKDFLLKPKNSFVKTSPSPLANGPSFRSANASPFDSCDSFHSGSSIPIEPVSSRQSSVVNNNSVQQPVAYHAFVQSPTENGTLPQLPKNESVVNPPPLRRSSTMNYKSVSTTTSPSKYGYVSGRIALSPIHLRGALRDVTNKCNLKVPRNRNSLSNLDEYYVNGLESDETPTKARFPRYPTVFNKLDDKRLSSEPNGLKKRLTNSSNYEASPRAKSLNLSQVSLHQACEPEYNRSSLVRASDVFTSNVFDATEESANELAIRISELQAEVGTLLLEATSLASIIEQQTPVSPEAFKQELVADLNYRLDYLRKSFQPELSTLLLRRDALSTTVSKLQNAYSTVMEETAYLNVKNTELVSLNNQLERELAYLREQQHKKRTSSSFGIFNNDKKSNRTISTPSPRESFSRLQMVASSLGFRPKDNKDKESGGYNKRNSKIDLKKSFSKRFHWKRDSPHMSSTPSISEEHLASEEQEDFVPAVGHCKLCGKYSNELRAHYQDCVSSTIDRQYQSKKSESPVWALNPDDFDQNRLTLLRVPTLIVSCINFIESYGMDFEGLYRKSGATSQMKKIVALLRNEDTVLDPSEDISAVTSVFKQYLRNLPNPIITYDQYFPFITAANCASFQDKLDGFIMVIKSLPPAHAEILQLIIRHLARVAAYSHANRMTSKNLAVVFSPTLIRDPDNSRDVIDMTVKNYSLAFLIDHVHEVFA
B4: Rga4-mCherry (protein, UniProt O74360 1-933)
chain: B3 chain

How the values were obtained:
Spn1-tagRFP (S. pombe) = molecular target: T1, Spn1-tagRFP (S. pombe) (UniProt O36023); assay: FRET or BRET
T1 sequence: B2 chain

Rga4-GFP (S. pombe) = molecular target: T2, Rga4-GFP (S. pombe) (UniProt O74360); assay: GFP-GBP trap
T2 sequence: B3 chain

Spn3-GFP (S. pombe) = molecular target: T3, Spn3-GFP (S. pombe) (UniProt P48008); assay: GFP-GBP trap
T3 sequence: B1 chain

Row | Binder | binding (Spn1-tagRFP (S. pombe)) | binding (Rga4-GFP (S. pombe)) | binding (Spn3-GFP (S. pombe))
1 | B1 | binds | – | –
2 | B2 | – | no binding | binds
3 | B3 | no binding | – | –
4 | B4 | – | – | no binding
